The list shows a part of the results. These are further read-outs of the screen, such as a control signal, another cell line or another target. No call is given for them. Most of these compounds were active or inconclusive in the main read-out, so they are no random draw. Potencies come from curve fits of mixed quality, noted in brackets.

The nature of the assay: Cell signaling CRE-BLA (Fsk stim). Particulars: CHO CRE-bla reporter (cAMP response element driving beta-lactamase), forskolin EC10, beta-lactamase ratio; measured here: 460 nm blue channel. The gist of the method: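 CRE-bla CHO reporter cells treated with compound titration plus EC10 NKH 477 (water-soluble forskolin), incubated 3 h at 37 °C; CCF4 loading 2 h at room temperature, 460/530 nm emission ratio read, AC50 values derived for positive or negative modulators.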
Turning to `CC(C)C12CN3CC(C(C)C)(CN(C1)C3c1ccccc1)C2O` (configuration not stated), the AC50 – broadly, the midpoint of the concentration-response curve, whichever way the signal moves – is 0.398 µM [rising, partial curve].
As for `O=C(Nc1ccc(N2CCN(C(=O)c3ccco3)CC2)c(Cl)c1)c1cccs1`, the AC50 is 31.6 µM [falling, single point].
Turning to `O=C(COC(=O)c1cc(-c2ccco2)nc2ccccc12)NCc1ccc2c(c1)OCO2`, the AC50 is 10 µM [rising, partial curve].
The value for `CCOc1cc2[nH]c(=S)n(CCOC)c(=O)c2cc1OCC` was 10 µM [rising, single point]; that for `Cc1ccc(S(=O)(=O)Oc2ccc(N=Nc3ccc(-c4ccc(N=Nc5c(O)ccc6cc(S(=O)(=O)O)cc(S(=O)(=O)O)c56)c(C)c4)cc3C)cc2)cc1` was 0.316 µM [falling, full curve]; that for `CCOC(=O)Cc1c(C)c2c(O)cc(O)cc2oc1=O` was 10 µM [rising, partial curve].
Next, `O=C(Cn1[nH]c(=O)c2ccccc2c1=O)Nc1cccc(-c2nnc3n2CCCCC3)c1`: 0.631 µM [falling, full curve, poor fit].
Consider `CCCCCn1c(CN2CCN(c3cccc(Cl)c3)CC2)nc2c1c(=O)n(C)c(=O)n2C`, for which the AC50 was 12.6 µM [rising, partial curve].
The value for `COc1ccc(CCN(Cc2nc3ccccc3c(=O)[nH]2)C(=O)c2ccco2)cc1` was 10 µM [rising, partial curve]; that for `CCOC(=O)c1cnc(-n2nc(C)cc2C)nc1NCc1ccc2c(c1)OCO2` was 12.6 µM [falling, partial curve, poor fit]; that for `O=C(c1ccc(-c2ccccc2)cc1)N1CCN(c2ncccn2)CC1` was 10 µM [rising, single point].
Next, `CCCCNc1nc(N(C)c2ccccc2)nc(-n2ccnc2)n1`: 1.26 µM [rising, partial curve].
The value for `OC(CN1CCN(c2cccc(C(F)(F)F)c2)CC1)c1c[nH]c2ccccc12` (configuration not stated) was 6.31 µM [falling, partial curve, poor fit].
As for `COc1ccccc1NC(=O)N1CCn2c(nc3ccccc32)C1`, the half-maximal activity concentration (AC50) is 10 µM [rising, partial curve, poor fit].
For the compound `CCCC(=O)Nc1ncnc2c1ncn2[C@@H]1O[C@H]2COP(=O)(O)O[C@@H]2[C@@H]1OC(=O)CCC`, the AC50 is 3.98 µM [rising, full curve, poor fit].
The value for `C=C(Cl)COc1ccc2c(C)cc(=O)oc2c1` was 1.26 µM [rising, partial curve].
In the case of `O=C(NC1CCCCCC1)c1cc(S(=O)(=O)N2CCC3(CC2)OCCO3)ccc1F`, the AC50 was 3.16 µM [rising, full curve].

Values taken from PubChem BioAssay AID662 (National Center for Advancing Translational Sciences (NCATS), 2007).
